Among all 2,400 compounds or so, about 20 (0.8%) were called active.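 Rule for the calls: active = AC50 no more than ten times the highest tested concentration, or full inhibition at every dose giving a flat fit (cut at about 30 µM in these data); inconclusive = flat fit with activity between 30% and 70%, or poor-quality invalid fit; inactive = AC50 more than ten times the top tested dose.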 The list shows a part of the results.
Test: luciferase-based ADP detection interference – biochemical, luminescence, cell-free, homogeneous, artefact control for GSK-3a inhibitor project, dose response (AID 463205);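 note: kinase-free counter-screen against the ADP-Glo detection reagents only; potency is for inhibitors that reduce the luminescence signal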
Conditions: Cell-free ADP-Glo detection reagents, 5 uM ADP

AC50, inactive:
CN1CCN(Cc2c(C(=O)N/N=C/c3cccc(Br)c3)nnn2-c2nonc2N)CC1 > 30 µM, CC(C)CNc1cc(N2CCCC2)ccc1[N+](=O)[O-] > 30 µM, O=C(Nc1nc2c(s1)CCCC2)c1ccc(Br)s1 > 30 µM, O=C(CN1CCOCC1)Nc1cccc(Br)c1 > 30 µM, CC(=O)O[C@@H]1[C@@H](O)[C@@H](O)[C@H](Oc2c(-c3ccc(O)cc3)oc3c(CC=C(C)C)c(O)cc(O)c3c2=O)O[C@H]1C > 30 µM, O=C(NCC1CCN(Cc2ccccc2Cl)CC1)Nc1cccc(Cl)c1 > 30 µM, Cc1ccc(S(=O)(=O)N2CCN(C(=O)n3ccnc3)CC2)cc1 > 30 µM, CC(C)c1c(C(=O)N/N=C/c2ccsc2)nnn1-c1nonc1N > 30 µM, CCN1C(=O)/C(=C/c2cccs2)N(C)C1=S > 30 µM, Cc1c(CN(C)C)c2c(n1Cc1ccccc1)C(=O)c1ccccc1-2 > 30 µM, COc1ccc(/C=C(\C#N)C(=O)N=CN(C)C)cc1 > 30 µM, COc1ccc(SCCN2CC[C@@H](C(C)(C)C)CCC2=O)cc1 > 30 µM, CCOCC(=O)Nc1nc2ccc(OCC)cc2s1 > 30 µM, O=c1cc(-c2ccc(O)c(O)c2)oc2c1ccc1ccccc12 > 30 µM, CCOc1cc(/C=N/Nc2ncc(C)c(=O)[nH]2)ccc1O > 30 µM, COc1cccc2cc(C(=O)NCc3ccco3)c(=O)oc12 > 30 µM, O=C(Nc1ccccc1C(=O)N1CCOCC1)c1cccnc1 > 30 µM, CC1(C)CC(=O)C2=C(C1)Nc1ccccc1[S@]2=O > 30 µM, CCOc1cc(/C=N/NC(=O)N/N=C/c2ccc(O)c(OCC)c2)ccc1O > 30 µM, CCCCC(=O)Nc1sc2c(c1C(N)=O)CCC2 > 30 µM, CCCCCCCNc1nc(Cl)nc(NCCO)n1 > 30 µM, Cc1ccc(C(=O)c2cc(C)sc2NC(=O)CN2CCN(C(=O)c3ccco3)CC2)cc1 > 30 µM, C/C(=N\NC(=O)c1nnn(-c2nonc2N)c1-c1cccs1)c1cccc(O)c1 > 30 µM, O=C1NC(=O)/C(=C\c2ccc(OCc3cccc(C(=O)O)c3)c(Cl)c2)N1 > 30 µM, COC(=O)c1c(NC(=O)CN2C(=O)NC3(CCC(C(C)(C)C)CC3)C2=O)sc2c1CCCCC2 (stereo unspecified) > 30 µM, COc1ccc(NC2CC(=O)NC2=O)cc1 (stereo unspecified) > 30 µM, COc1ccc(-n2c(O)c(C=NC3CC3)c(=O)[nH]c2=O)cc1 > 30 µM, N/C(=N\OC(=O)c1ccc(Br)cc1)c1cccc([N+](=O)[O-])c1 > 30 µM, COc1ccc(CC(=S)N2CCOCC2)cc1OC > 30 µM, O=C(Nc1cccnc1)c1scc2c1OCCO2 > 30 µM, Cn1c(=O)c2c([nH]c(=O)n2C)n(Cc2ccccc2)c1=O > 30 µM, Cc1ccc(N(C)C(=O)C2CCCN2S(=O)(=O)c2cccc3nsnc23)cc1 (stereo unspecified) > 30 µM, CC(C)NC(=O)NC(=O)CSc1nncn1C > 30 µM, CCNC(=S)NNC(=O)Cc1ccccc1 > 30 µM, COC(=O)c1c(NC(=O)CN2C(=O)NC3(CCCCC3C)C2=O)sc2c1CCC2 (stereo unspecified) > 30 µM, COc1ccc(OC)c(/C=C2\Oc3cc(OCC(=O)N4CCC[C@H]4C(=O)O)ccc3C2=O)c1 > 30 µM, O=C(O)c1cccc2c1C(=O)c1ccc(Cl)cc1S2(=O)=O > 30 µM, O=C(NCCc1csc(-c2ccccc2)n1)c1ccc(Br)o1 > 30 µM, O=c1ccc(-c2nc3ccccc3n2Cc2ccc(Cl)cc2)c[nH]1 > 30 µM, COc1ccc(-n2c(C)nc(N)c2C(=O)c2ccccc2)cc1 > 30 µM, Cc1ccc(-n2cnc(N)c2C(=O)c2cccc([N+](=O)[O-])c2)cc1 > 30 µM, O=Cc1cn(-c2ccccc2)nc1-c1ccc2c(c1)OCCO2 > 30 µM, CCCn1c2ccccc2c2nc3ccccc3nc21 > 30 µM, O=c1c(O[C@@H]2O[C@H](CO)C(O)C2O)c(-c2ccc(O)c(O)c2)oc2cc(O)cc(O)c12 (stereo partly specified) > 30 µM, CC1CCCC(C)N1C(=O)COC(=O)c1c[nH]c2ccccc12 (stereo unspecified) > 30 µM, Cc1ccc(Cc2c(C)nc3nc(SCC(=O)NCCCN4CCCCCC4)nn3c2C)cc1 > 30 µM, OCCCNc1ncnc2scc(-c3ccc(Cl)cc3)c12 > 30 µM, CC(C)Cn1nc(NC(=O)C2CCCO2)c2cc3ccccc3nc21 (stereo unspecified) > 30 µM, Cc1ccc2nc3c(cc2c1)c(NS(=O)(=O)c1ccccc1)nn3CC(C)C > 30 µM, O=C(N/N=C/c1cccnc1)c1cccc(S(=O)(=O)N2CCCC2)c1 > 30 µM, COc1c(-c2ccccc2)oc2c(ccc3occc32)c1=O > 30 µM, NC(=NCCCCCCN=C(N)/N=C(\N)Nc1ccc(Cl)cc1)/N=C(\N)Nc1ccc(Cl)cc1 > 30 µM, C/C(=N\O)C(=O)NCCCn1ccnc1 > 30 µM, O=c1cc(-c2ccncc2)oc2c1ccc1ccccc12 > 30 µM, COC(=O)c1oc2ccc(Cl)cc2c1N > 30 µM, COc1ccc(-c2cn3cccnc3n2)cc1NC(=O)C1CC1 > 30 µM, CCOc1ccc2ncc(S(=O)(=O)c3ccccc3)c(N3CCN(c4ccccc4)CC3)c2c1 > 30 µM, Cc1cccc(C(=O)Nc2cccc(-c3cnc4ccccc4n3)c2)c1 > 30 µM, Fc1ccc(Nc2ccnc(Nc3ccc(F)cc3)n2)cc1 > 30 µM, CC1(C)Cc2c(sc3ncn(N)c(=N)c23)CO1 > 30 µM, CCCc1c(C(=O)N/N=C/c2cccnc2)nnn1-c1nonc1N > 30 µM, O=C(CSCCc1ccccn1)Nc1ccccn1 > 30 µM, Cc1ccc(/C=N/NC(=O)c2nnn(-c3nonc3N)c2CN(C)C2CCCCC2)cc1 > 30 µM, COc1cccc(N(CC(=O)Nc2cccc(C(C)=O)c2)S(C)(=O)=O)c1 > 30 µM, COc1ccccc1N1C(=O)C2C(c3ccccc3F)NN(C(=O)c3ccc(C)cc3)C2C1=O (stereo unspecified) > 30 µM, O=C(O)c1cn(-c2ccccc2)nc1-c1cccnc1 > 30 µM, CCOc1ccc2nc(NC(=O)CSC3=NCCS3)sc2c1 > 30 µM, CCCC(=O)Nc1cc(-c2cn3cccnc3n2)ccc1OC > 30 µM, COc1cc(/C=N/NC(=O)c2cccnc2)cc(Br)c1O > 30 µM, COC(=O)c1sccc1NC(=O)c1ccccc1 > 30 µM, Cc1nc(N2CCC(C(N)=O)CC2)c2c(-c3cccs3)csc2n1 > 30 µM, COc1ccc2nc(NC(=O)CN3CCN(C)CC3)sc2c1 > 30 µM, CC(C)NC(=O)Nc1ccc(Br)cc1Cl > 30 µM, CCOC(=O)c1nc(NCc2ccccc2C)c2ccccc2n1 > 30 µM, Cc1ccc(NC(=S)Nc2ccc3cn[nH]c3c2)c(C)c1 > 30 µM, Cc1cc(C)cc(NC(=O)CSCc2nc3c(nnn3Cc3ccc(F)cc3)c(=O)[nH]2)c1 > 30 µM, O=C(CSc1cccc2cccnc12)N/N=C/c1ccc(O)cc1 > 30 µM, O=C(CSc1ccccn1)Nc1ccccc1F > 30 µM, CCOc1cccc(-c2c(C(=O)N/N=C(\C)c3ccncc3)nnn2-c2nonc2N)c1 > 30 µM, Cc1sc2ncnc(NCCN3CCOCC3)c2c1C > 30 µM, CCC(CO)Nc1ncc([N+](=O)[O-])cc1C#N (stereo unspecified) > 30 µM, COc1ccc2nc(NC(=O)CSc3cn[nH]n3)sc2c1 > 30 µM, Cc1nnc(NC(=O)Oc2ccccc2)s1 > 30 µM, O=C(O)CCCNc1ccc([N+](=O)[O-])c(NCCCC(=O)O)n1 > 30 µM, c1cc2[nH]snc2c2nc(C3CC3)nc12 > 30 µM, CCOc1cccc(-c2c(C(=O)N/N=C/c3sccc3C)nnn2-c2nonc2N)c1 > 30 µM, Cc1ccc(C)c(/C=N/Nc2ccccn2)c1 > 30 µM, COC(=O)c1cn(C(=O)c2ccccc2F)nc1N > 30 µM, CCNc1c(C(=O)O)ccc2c1C(=O)c1ccccc1C2=O > 30 µM, Cc1cc(N2CCN(c3ccccc3)CC2)n2cc(-c3ccccc3)nc2n1 > 30 µM, O=C(CSCCO)Nc1ccc([N+](=O)[O-])cc1 > 30 µM, Nc1c(C(=O)Nc2ccc3c(c2)OCCO3)nnn1Cc1ccccc1Cl > 30 µM, CCOC(=O)c1cc(C)sc1NC(=O)CCC(=O)O > 30 µM, CCOC(=O)c1c(NC(=O)Cc2cccs2)sc2c1CCCC2 > 30 µM, CCCCOC(=O)C1=C(C)Nc2ncnn2C1c1ccc(OC)c(OC)c1OC (stereo unspecified) > 30 µM, Cc1nc(NCCc2ccccc2)c(C#N)c(C)c1[N+](=O)[O-] > 30 µM

— PubChem BioAssay AID463205 (Broad Institute, 2010)
